Laboratory results published in article PMC11189575.
Results are given in words; binding and its absence hold for the method and conditions named. Binding seen in cells or lysates may run through a third protein. A result given as binding can be weak or reduced; the word gives no strength.

B1: PAPR (enzyme, UniProt P17854 1-244)
chain: MSKLDLNALNELPKVDRILALAETNAELEKLDAEGRVAWALDNLPGEYVLSSSFGIQAAVSLHLVNQIRPDIPVILTDTGYLFPETYRFIDELTDKLKLNLKVYRATESAAWQEARYGKLWEQGVEGIEKYNDINKVEPMNRALKELNAQTWFAGLRREQSGSRANLPVLAIQRGVFKVLPIIDWDNRTIYQYLQKHGLKYHPLWDEGYLSVGDTHTTRKWEPGMAEEETRFFGLKRECGLHEG
B2: MsrA (enzyme, UniProt P0A744 1-212)
chain: MSLFDKKHLVSPADALPGRNTPMPVATLHAVNGHSMTNVPDGMEIAIFAMGCFWGVERLFWQLPGVYSTAAGYTGGYTPNPTYREVCSGDTGHAEAVRIVYDPSVISYEQLLQVFWENHDPAQGMRQGNDHGTQYRSAIYPLTPEQDAAARASLERFQAAMLAADDDRHITTEIANATPFYYAEDDHQQYLHKNPYGYCGIGGIGVCLPPEA
B3: BCP (enzyme, UniProt P0AE52 1-156)
chain: MNPLKAGDIAPKFSLPDQDGEQVNLTDFQGQRVLVYFYPKAMTPGCTVQACGLRDNMDELKKAGVDVLGISTDKPEKLSRFAEKELLNFTLLSDEDHQVCEQFGVWGEKSFMGKTYDGIHRISFLIDADGKIEHVFDDFKTSNHHDVVLNWLKEHA
B4: Tpx (enzyme, UniProt P0A862 1-168)
chain: MSQTVHFQGNPVTVANSIPQAGSKAQTFTLVAKDLSDVTLGQFAGKRKVLNIFPSIDTGVCAASVRKFNQLATEIDNTVVLCISADLPFAQSRFCGAEGLNNVITLSTFRNAEFLQAYGVAIADGPLKGLAARAVVVIDENDNVIFSQLVDEITTEPDYEAALAVLKA

target: Trx1(C35A-Q62eFSY); assay: cross-linking; eFSY at site 62 of Trx1 in live E. coli; His-tag purification, biotin labelling, enrichment of cross-linked peptides, LC-MS/MS, search with AixUaa

binding	Binder
binds	B1
binds	B2
binds	B3
binds	B4
